Assay results as given in PubChem BioAssay AID493014 (National Center for Advancing Translational Sciences (NCATS), 2011).
Values joined by “and” are separate entries in the source; they are usually repeats but may differ in a detail not shown here. Equal entries are not always repeated. Hit rate of the full screen: of about 340,000 compounds, about 170 (0.05%) were called active. Inconclusive means that the source gave no clear call. Such entries were picked first, then a sample of the others. Calls come from the whole dose curve; as a rule, active = well fitted inhibition curve with a large enough effect in the signal ratio, with a control signal flat (not every such curve was filed as active); inconclusive = small, poorly fitted or top-dose-only effect, or effect the other way, or a change in a side signal; inactive = flat fitted curve, though single readings scatter; the % refers to the signal ratio. A potency beside an inconclusive call is a rough fit, not a confirmed value.

Assay: qHTS Assay to Find Inhibitors of Chronic Active B-Cell Receptor Signaling;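 for activity change, negative = inhibition: plate controls were basal doxycycline-induced cells for no effect and cells given 10 µM MG132 for full effect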
Conditions: ABC-DLBCL IkBa-CBG/CBR reporter, luminescence ratio (green luciferase fused to IkBa over red control in TMD8 lymphoma cells), 4 h; activity change, negative = inhibition: at 46.1 µM (top of the series)
Method in brief: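 TMD8 ABC-DLBCL cells carrying doxycycline-inducible green luciferase fused to IkappaBalpha plus unfused red luciferase were exposed to compounds (up to 46 uM) for 4 hrs at 37C. Activity came from the overlap-corrected green/red luminescence ratio.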
Potency is the fitted concentration of half-maximal effect.

SMILES	Potency	activity change, negative = inhibition
O=c1c2ccccc2ncn1-c1cccc(Cl)c1	inconclusive: 0.461 µM [falling, full curve, poor fit]	–
Nn1cnnc1N/N=C/c1cc(Br)cc(Br)c1O	inconclusive: 14.1 µM [falling, single point]	–
O=C(Nc1ccccc1Cl)c1ccc(Cl)cc1Cl	–	inconclusive: 11.8%
COc1ccc2nc(NC(=O)CSCC(=O)Nc3cc(C)on3)sc2c1	inconclusive: 20.6 µM [falling, partial curve, poor fit]	–
COc1cccc(C(=O)Nc2nnc(Cc3ccc(OC)c(OC)c3)s2)c1	–	inconclusive: -42.8%
O=C1CN(C(=O)c2cccc(Br)c2)c2ccccc2N1	inconclusive: 14.1 µM [falling, partial curve, poor fit]	–
Cc1ccc(N(CC(=O)NCCSc2ccccn2)S(=O)(=O)c2ccc(F)cc2)cc1	–	inconclusive: -14%
O=C(O)CCSc1nnc(-c2ccc3c(c2)OCO3)o1	inconclusive: 3.16 µM [falling, partial curve]	–
CCOc1ccc(Cc2c(C)[nH]c3ccc(C(=O)O)cc3c2=S)cc1	inconclusive: 0.0891 µM [falling, full curve, poor fit]	–
Cc1ccc(S(=O)(=O)NCC(c2ccco2)S(=O)(=O)c2ccccc2)cc1 (stereo unspecified)	–	inconclusive: -4.81%
CCN(CC)c1ccc(/C=N/NC(=O)C(O)c2ccccc2)cc1 (stereo unspecified)	inconclusive: 25.1 µM [falling, single point]	–
N#CC1=C2SCC(O)(c3ccccc3)N2C(=O)CC1c1ccccc1F (stereo unspecified)	inconclusive: 20.6 µM [falling, partial curve]	–
COc1cc(OC)cc(C(=O)Nc2ncc3c(n2)CC(C)(C)CC3=O)c1	inconclusive: 20 µM [falling, single point]	–
Cc1ccc(OCCC(=O)OC(C)C(=O)Nc2c(C)n(C)n(-c3ccccc3)c2=O)cc1 (stereo unspecified)	–	inactive
O=C(c1cccc(Cl)c1)N1CCN(c2ccccn2)CC1	–	inconclusive: 12.6%
CCn1c(=O)c2c(nc3n2CC(C)CN3CCc2ccccc2)n(C)c1=O (stereo unspecified)	–	inconclusive: -0.953%
COc1ccc(C(=O)Nc2cccc(C(=O)N3CCN(C)CC3)c2)cc1	–	inconclusive: -6.19%
N=c1oc2ccccc2cc1C(=O)N/N=C/c1ccccc1	inconclusive: 5.62 µM [rising, single point]	–
COc1ccc(-c2c(-c3ccc(OC)c(C)c3O)n[nH]c2C)cc1	inconclusive: 15.8 µM [falling, single point]	–
CC(=O)Nc1ccc(NC(=O)C(C)OC(=O)c2ccccc2C(=O)c2ccc(Cl)c([N+](=O)[O-])c2)cc1 (stereo unspecified)	–	inconclusive: -0.729%
CCNc1nc(NC(C)C)nc(N(n2cnnc2)S(=O)(=O)c2ccc(C)cc2)n1	–	inactive

SMILES	Potency	activity change, negative = inhibition
CCOc1ccc(NS(=O)(=O)c2ccc3c(c2)n(C)c(=O)n3C)cc1	–	inconclusive: 0.414%
CCc1nnc(NC(=O)c2ccc(COc3ccccc3)o2)s1	–	inactive
CCC(Oc1ccccc1)C(=O)N1CCN(C(=O)C(CC)Oc2ccccc2)CC1 (stereo unspecified)	inconclusive: 29.1 µM [rising, single point]	–
CC(C)CCSc1nc2ccccc2[nH]1	–	inconclusive: -2.66%
COc1ccc(CNC(=S)NCc2ccc(OC(C)C)cc2)cc1	–	inactive
Cc1ccc(Nc2nc(N)nc(CN3CCN(Cc4ccc5c(c4)OCO5)CC3)n2)cc1Cl	–	inconclusive: -3.33%
CN(C)CCNC(=O)C12CC3(C)CC(C)(CC(C)(C3)C1)C2	–	inactive
Cc1sc(NC(=O)COc2cccc(-n3cnnn3)c2)c(C#N)c1C	–	inconclusive: 3.85%
COc1cc(/C=N/N(C)C2=NS(=O)(=O)c3ccccc32)cc(OC)c1OC	–	inactive
COc1ccc(OC(C)C(=O)Nc2cccc([N+](=O)[O-])c2)cc1 (stereo unspecified)	–	inactive
CCOc1ccc(S(=O)(=O)N2CCCC(C(=O)Nc3cccc(C)c3)C2)cc1 (stereo unspecified)	–	inactive
COc1ccc(C(=O)CCN2CCN(c3ccccc3OC)CC2)cc1	–	inconclusive: 12.8%
COc1ccc(S(=O)(=O)N2CCCCC2)cc1NS(=O)(=O)c1cc(Cl)ccc1Cl	–	inconclusive: -19.1%
CCn1c(SCc2cc(=O)[nH]c3ccccc23)nnc1C1CC1	–	inconclusive: -3.27%
COc1cc(/C=C/C(=O)OCC(=O)Nc2cc(S(=O)(=O)N3CCCCC3)ccc2C)ccc1O	inconclusive: 29.1 µM [falling, single point]	–
CCOc1ccccc1-n1nnnc1SCC(=O)Nc1cc(C)on1	–	inconclusive: 8.44%
CC1=CC(=C2C(=O)c3ccccc3C2=O)C=C(C)N1C	–	inconclusive: 0.965%
Cc1cccc(-n2c(-c3cccc([N+](=O)[O-])c3)nc3nc4ccccc4nc32)c1	–	inconclusive: 10.6%
CCn1c(SCC(N)=O)nnc1-c1cc2c(C)nn(-c3ccccc3)c2s1	–	inconclusive: -1.18%
Cc1cccc(Nc2nnc(SCC(=O)c3ccc(Br)s3)s2)c1C	–	inconclusive: -4.13%
Cc1cccc(N/N=C/c2ccncc2)c1	–	inconclusive: 3.21%

SMILES	Potency	activity change, negative = inhibition
COc1cccc(C2=CC(=O)C[C@H](c3ccc(OC)c(OC)c3)C2)c1	–	inactive
CN1/C(=C/C(=S)NC(=O)C2(C)CC2(Cl)Cl)C(C)(C)c2ccccc21 (stereo unspecified)	inconclusive: 22.4 µM [falling, partial curve, poor fit]	–
O=C1/C(=C\c2ccc(O)c(O)c2)C(c2ccccc2)=NN1c1ccccc1	–	inconclusive: 11.7%
CCCCN1C(=O)/C(=C(/C#N)C(N)=O)c2ccccc21	–	inconclusive: -19.1%
O=C(COc1cccnc1[N+](=O)[O-])Nc1cccc(S(=O)(=O)N2CCOCC2)c1	inconclusive: 6.31 µM [falling, full curve]	–
CCOc1ccccc1Nc1sc(C(=O)c2ccccc2)c(N)c1C(=O)Nc1ccccc1	inconclusive: 12.6 µM [falling, partial curve, poor fit]	–
COc1ccc(S(=O)(=O)N2CCN(C(=O)c3cnc(C)cn3)CC2)cc1	–	inconclusive: -5.98%
COc1ccc(Nc2cccc3ccccc23)cc1	–	inactive
Cc1noc(C)c1CSc1nc2sc3c(c2c(=O)n1C)CCCC3	–	inactive
COc1cc(/C=C2\CC/C(=C\c3cc(OC)c(O)c(OC)c3)C2=O)cc(OC)c1O	–	inconclusive: 15.2%
COC(=O)C1=CN(Cc2ccc(OC)c(OC)c2)C=C(C(=O)OC)C1c1cccc(OC)c1OC	–	inconclusive: 3.42%
CCn1c(=O)c2cc(S(=O)(=O)NC3CCCCC3)ccc2n(CC)c1=O	–	inconclusive: 13.7%
CC(NCc1ccccc1Cl)C(=O)Nc1ccc(S(=O)(=O)N2CCCC2)cc1 (stereo unspecified)	–	inconclusive: 0.352%
COc1cc(/C=N/NC(=O)C2C3CCCCC32C)cc(Br)c1O (stereo unspecified)	–	inconclusive: -7.62%
C#CCOC(=O)c1ccccc1C(=O)n1nnc2ccccc21	–	inconclusive: -15.9%
CC1CCN(C(=S)NC(=O)c2ccccc2Br)CC1	inconclusive: 28.2 µM [falling, single point]	–
CCCCNc1c(-c2ccc(OC)c(SC3CCCCC3)c2)nc2cc(C)ccn12	–	inconclusive: -0.652%
CN(C1CCCC1)C1CCN(C(=O)CNC(=O)/C=C/c2ccc(F)cc2)CC1	–	inconclusive: 2.04%
CC(=O)N1CCN(c2ccc(NC(=O)c3ccccc3C)cc2)CC1	inconclusive: 31.6 µM [falling, single point]	–
Cc1nnc(-n2ncc(C#N)c2N)c2nn(-c3cccc(Cl)c3)c(C)c12	–	inconclusive: -2.04%
CCOc1cccc(N2C(=O)CC(NNC(=O)c3ccc(Br)o3)C2=O)c1 (stereo unspecified)	–	inconclusive: 11.1%

SMILES	Potency	activity change, negative = inhibition
CCC(=O)Nc1ccc(C(=O)NNC(=O)c2ccc(C)cc2)cc1	–	inconclusive: 8.01%
COc1ccc(NC(=O)COc2cccc(-n3cnnn3)c2)cc1Cl	–	inactive
Cc1ccc(C2CC(c3cccs3)=NN2S(=O)(=O)c2ccc(C)cc2)cc1 (stereo unspecified)	–	inactive
OC(CN=c1sc2ccccc2n1CC(O)COc1ccccc1)COc1ccccc1 (stereo unspecified)	inconclusive: 29.1 µM [rising, single point]	–
O=C(NCc1ccco1)Nc1ccc2snnc2c1	–	inconclusive: -16.1%
O=[N+]([O-])c1cc(S(=O)(=O)NCCN2CCOCC2)ccc1Cl	–	inconclusive: -1.17%
CCOCCCn1c(SCC(=O)OCC)nc2c(sc3ccccc32)c1=O	–	inactive
O=C(CCNC(=O)c1ccccc1)NCCCc1ccccc1	–	inactive
O=C(CCC(=O)c1ccc(Cl)cc1)OCn1nnc2ccccc2c1=O	–	inactive
CC1CCN(S(=O)(=O)c2ccc(C(=O)N3CCN(c4ccccc4F)CC3)cc2)CC1	–	inconclusive: -18.6%
Cn1nc(C(=O)OCc2ccc(F)cc2)c2ccccc2c1=O	–	inconclusive: 8.07%
CCOC(=O)C1(CCOc2ccccc2)CCN(Cc2ccc(OC)c(O)c2)CC1	–	inconclusive: -27.4%
Cc1ccccc1CNc1ccc(C(CC(N)=O)NC(=O)c2ccccc2)cc1[N+](=O)[O-] (stereo unspecified)	–	inconclusive: -1.48%
CCOc1c(C)cc(-c2ncccc2O)cc1C	–	inconclusive: 1.23% and inconclusive: 3.1%
COc1ccc2nc(NCc3ccccc3)[nH]c2c1	inconclusive: 29.1 µM [falling, single point]	–
Cc1cccnc1NC(=S)Nc1ncccc1C	–	inconclusive: 6.37%
O=C1CC(NNc2ccccc2)C(=O)N1c1ccc(N2CCCCC2)cc1 (stereo unspecified)	–	inactive
O=C(Nc1ncccn1)c1cc([N+](=O)[O-])cc([N+](=O)[O-])c1	–	inactive

Entries of single compounds, quoted from the list.
`Cn1nc(C(=O)OCc2ccc(F)cc2)c2ccccc2c1=O` is entered as activity change, negative = inhibition: inconclusive: 8.07%
`CCOCCCn1c(SCC(=O)OCC)nc2c(sc3ccccc32)c1=O` is entered as activity change, negative = inhibition: inactive
`CCC(=O)Nc1ccc(C(=O)NNC(=O)c2ccc(C)cc2)cc1` is entered as activity change, negative = inhibition: inconclusive: 8.01%
